These are yes or no findings as the source states them, for the method shown. In cells and extracts the contact can be indirect. Some results given as binding are weak or reduced against the parent protein; the word gives no strength. Tags and fused reporters may be left off the sequences shown.
Columns and labels:
[1] = biological target: FLAG-tagged DPP9 (DPP9S), wild type (human) (UniProt Q86TI2); experiment: co-IP
[2] = biological target: FLAG-tagged DPP9 (DPP9S), wild type (human), Q86TI2; experiment: co-IP; settings: remark: other sources report otherwise

Amino acid sequences for entries named in this document (tags omitted).
UniProt Q86TI2: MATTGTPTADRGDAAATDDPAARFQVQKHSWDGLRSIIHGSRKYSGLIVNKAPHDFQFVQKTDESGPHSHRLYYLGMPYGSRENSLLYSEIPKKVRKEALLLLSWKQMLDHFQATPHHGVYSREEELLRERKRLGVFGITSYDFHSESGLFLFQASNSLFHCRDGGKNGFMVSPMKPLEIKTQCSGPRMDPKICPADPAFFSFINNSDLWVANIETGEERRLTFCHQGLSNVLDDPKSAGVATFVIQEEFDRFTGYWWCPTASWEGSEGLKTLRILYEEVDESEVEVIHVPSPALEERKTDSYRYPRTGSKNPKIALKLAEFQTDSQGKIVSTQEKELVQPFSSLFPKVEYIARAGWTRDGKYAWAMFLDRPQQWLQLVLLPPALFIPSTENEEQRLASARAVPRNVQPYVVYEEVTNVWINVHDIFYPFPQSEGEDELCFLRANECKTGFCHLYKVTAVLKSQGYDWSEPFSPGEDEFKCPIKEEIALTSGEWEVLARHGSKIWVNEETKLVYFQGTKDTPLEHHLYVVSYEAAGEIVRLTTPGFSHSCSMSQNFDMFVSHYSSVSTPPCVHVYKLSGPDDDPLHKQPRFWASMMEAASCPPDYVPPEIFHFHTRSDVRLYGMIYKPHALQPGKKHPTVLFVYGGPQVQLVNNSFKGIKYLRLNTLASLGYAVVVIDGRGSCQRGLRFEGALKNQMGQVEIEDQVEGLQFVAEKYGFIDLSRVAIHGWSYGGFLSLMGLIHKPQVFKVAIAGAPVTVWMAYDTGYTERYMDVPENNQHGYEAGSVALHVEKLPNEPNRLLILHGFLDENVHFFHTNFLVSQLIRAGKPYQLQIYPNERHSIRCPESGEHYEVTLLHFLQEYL

| Binder | binding [1] | binding [2] |
| --- | --- | --- |
| V5-tagged UbN-S1213 NLRP1 (NLRP1-CT-V5) (domain or fragment, UniProt Q9C000 1213-1473) SPLGVLLKMIHNALRFIPVTSVVLLYHRVHPEEVTFHLYLIPSDCSIRKAIDDLEMKFQFVRIHKPPPLTPLYMGCRYTVSGSGSGMLEILPKELELCYRSPGEDQLFSEFYVGHLGSGIRLQVKDKKDETLVWEALVKPGDLMPATTLIPPARIAVPSPLDAPQLLHFVDQYREQLIARVTSVEVVLDKLHGQVLSQEQYERVLAENTRPSQMRKLFSLSQSWDRKCKDGLYQALKETHPHLIMELWEKGSKKGLLPLSS | binds |  |
| MYC-tagged full-length NLRP1 S1213A, Q9C000 1-1473 (protein) MAGGAWGRLACYLEFLKKEELKEFQLLLANKAHSRSSSGETPAQPEKTSGMEVASYLVAQYGEQRAWDLALHTWEQMGLRSLCAQAQEGAGHSPSFPYSPSEPHLGSPSQPTSTAVLMPWIHELPAGCTQGSERRVLRQLPDTSGRRWREISASLLYQALPSSPDHESPSQESPNAPTSTAVLGSWGSPPQPSLAPREQEAPGTQWPLDETSGIYYTEIREREREKSEKGRPPWAAVVGTPPQAHTSLQPHHHPWEPSVRESLCSTWPWKNEDFNQKFTQLLLLQRPHPRSQDPLVKRSWPDYVEENRGHLIEIRDLFGPGLDTQEPRIVILQGAAGIGKSTLARQVKEAWGRGQLYGDRFQHVFYFSCRELAQSKVVSLAELIGKDGTATPAPIRQILSRPERLLFILDGVDEPGWVLQEPSSELCLHWSQPQPADALLGSLLGKTILPEASFLITARTTALQNLIPSLEQARWVEVLGFSESSRKEYFYRYFTDERQAIRAFRLVKSNKELWALCLVPWVSWLACTCLMQQMKRKEKLTLTSKTTTTLCLHYLAQALQAQPLGPQLRDLCSLAAEGIWQKKTLFSPDDLRKHGLDGAIISTFLKMGILQEHPIPLSYSFIHLCFQEFFAAMSYVLEDEKGRGKHSNCIIDLEKTLEAYGIHGLFGASTTRFLLGLLSDEGEREMENIFHCRLSQGRNLMQWVPSLQLLLQPHSLESLHCLYETRNKTFLTQVMAHFEEMGMCVETDMELLVCTFCIKFSRHVKKLQLIEGRQHRSTWSPTMVVLFRWVPVTDAYWQILFSVLKVTRNLKELDLSGNSLSHSAVKSLCKTLRRPRCLLETLRLAGCGLTAEDCKDLAFGLRANQTLTELDLSFNVLTDAGAKHLCQRLRQPSCKLQRLQLVSCGLTSDCCQDLASVLSASPSLKELDLQQNNLDDVGVRLLCEGLRHPACKLIRLGLDQTTLSDEMRQELRALEQEKPQLLIFSRRKPSVMTPTEGLDTGEMSNSTSSLKRQRLGSERAASHVAQANLKLLDVSKIFPIAEIAEESSPEVVPVELLCVPSPASQGDLHTKPLGTDDDFWGPTGPVATEVVDKEKNLYRVHFPVAGSYRWPNTGLCFVMREAVTVEIEFCVWDQFLGEINPQHSWMVAGPLLDIKAEPGAVEAVHLPHFVALQGGHVDTSLFQMAHFKEEGMLLEKPARVELHHIVLENPSFAPLGVLLKMIHNALRFIPVTSVVLLYHRVHPEEVTFHLYLIPSDCSIRKAIDDLEMKFQFVRIHKPPPLTPLYMGCRYTVSGSGSGMLEILPKELELCYRSPGEDQLFSEFYVGHLGSGIRLQVKDKKDETLVWEALVKPGDLMPATTLIPPARIAVPSPLDAPQLLHFVDQYREQLIARVTSVEVVLDKLHGQVLSQEQYERVLAENTRPSQMRKLFSLSQSWDRKCKDGLYQALKETHPHLIMELWEKGSKKGLLPLSS |  | binds |

Source: paper doi:10.1101/2021.01.13.426575
